± gives the standard deviation. The list shows a part of the results, in another mix than the full data. Many of these values have a large error.

Data on 72 sequences can be found in the supplement of paper PMC10338343.
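Also: 1 nM active piRISC with 0.1 nM target library at 33 °C single turnover.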

The assay has as its system MILI (PIWIL2) piRISC loaded with piRNA #2 (26 nt). As to the kind of experiment: pre-steady-state target cleavage rate (min^-1); MIWI and MILI are mouse PIWI proteins and EfPiwi is from a freshwater sponge; tags in brackets are library labels; higher = faster piRNA-guided slicing of the target. The conditions noted are these: guide: piRNA #2 5'p-UUAGGUAACCCAGUAGAUCCAGAGGA; auxiliary factor: 500 nM mouse GTSF1. In a few lines: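 For Cleave-'n-Seq, a transcribed, DNA-blocked target RNA library […] met 1 nM active affinity-purified piRISC with one synthetic guide at 33 °C for 0–8 or 0–960 min in HEPES–potassium acetate buffer, with or without 500 nM GTSF1 partner protein. Uncleaved targets were sequenced and normalised to depth and weakly complementary targets, with three trials pooled and k3 capped at 0.0001 min^-1. A burst-and-steady-state fit supplied the pre-steady-state cleavage rate.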
For CUUAAGCUCUGGAUCUACUGGUUACCUAA, the “pre-steady-state target cleavage rate” value came out at 0.00171 ± 0.0047. As for CUUAAGGACUGGAUCUACUGGGUUACCAAA, the “pre-steady-state target cleavage rate” value amounted to 0.00249 ± 0.0096.

Take CUUAUCCUCUGGAUGUACUCGGUUACCUAA: the “pre-steady-state target cleavage rate” value stood at 0.00156 ± 0.0072.

CUUAAGGAGUGGAUCUAGUGGGUUAGCUAA: the “pre-steady-state target cleavage rate” value was 0.000372 ± 0.025. Take CUUAAGGAGACCUAGAUGACGGUUUACCUAA: the “pre-steady-state target cleavage rate” value came out at 0.00039 ± 0.013.

Consider CUUAAGGAGUGGAUCUACUGCGUUACGUAA, for which the “pre-steady-state target cleavage rate” value turned out to be 0.000368 ± 0.026. As to CUUAAGGAGAGGAUCUACUGGGUGACCUAA, the “pre-steady-state target cleavage rate” value turned out to be 0.00141 ± 0.0078. For CUUAUCCUCUGGAACUACUGGGUUACCUAA, the “pre-steady-state target cleavage rate” value is 0.188 ± 0.042. Turning to CUUAAGGAGACCUUGUACAGGGUUACCUAA, the “pre-steady-state target cleavage rate” value amounted to 0.000214 ± 0.024.

Regarding CUUAAGGUCUGGAUCUACUGCGUUUCCUAA, the “pre-steady-state target cleavage rate” value came out at 0.00254 ± 0.0048. Then CUUAUCCUCUGGUUCUACUGGGUAACCUAA, with 0.268 ± 0.097; and CUUAAGGUCUGGAUCUACGUGGGUUACCUAA, with 0.000869 ± 0.0084. Then CUUAAGGAGAGGAUCAUCUGGGUUACCUAA, with 0.000326 ± 0.016; and CUUAAGGAGACCAUCAACUGCGUUACCUAA, with 0.000146 ± 0.028; and CUUAAGGACUGGAUCUUCUGGGUUAGCUAA, with 0.0031 ± 0.011. With CUUAAGGACAGGAUCUACUGGGUUACCAAA, the “pre-steady-state target cleavage rate” value stood at 0.00498 ± 0.0074. On to CUUAAGGAGACGAUCUACUAGGGUUACCUAA, for which the “pre-steady-state target cleavage rate” value stood at 0.00125 ± 0.0091. As for CUUAAGGACUGGAUGUACUGGGAUACCUAA, the “pre-steady-state target cleavage rate” value amounted to 0.00345 ± 0.01. As to CUUAUCCUCUAGGAUCUACUGGGUUACCUAA, the “pre-steady-state target cleavage rate” value worked out at 0.049 ± 0.012. Turning to CUUAACCUCUGGUUCUACUGGGUAACCUAA, the “pre-steady-state target cleavage rate” value came out at 0.14 ± 0.044. For the sequence CUUAACCUCUGGAUCUACUGGCUUACCUAA, the “pre-steady-state target cleavage rate” value came out at 0.00249 ± 0.0045. Take CUUAACGUCUGGAUCUACUGGGUUACCUUA: the “pre-steady-state target cleavage rate” value is 0.0827 ± 0.015.

As to “CUUAAGGAGACCUACUACUGGGUUACCUAU [g2:g16:cont:t1U]”, the “pre-steady-state target cleavage rate” value turned out to be 0.000547 ± 0.018. For CUUAAGGUCUGGAUCUACUGGGAUACGUAA, the “pre-steady-state target cleavage rate” value is 0.000959 ± 0.0092. With CUUAAGCACUCGAUCUACUGGGUUACCUAA, the “pre-steady-state target cleavage rate” value was determined as 0.417 ± 0.15. On to CUUAAGGUCUGGUUCUACUCGGUUACCUAA, for which the “pre-steady-state target cleavage rate” value worked out at 0.00185 ± 0.0094. For CUUAAGGAGACGAUCUACUGGGUUACCAUAA, the “pre-steady-state target cleavage rate” value worked out at 0.000969 ± 0.012.

As to CUUAAGGUCUGGAACUACUCGGUUACCUAA, the “pre-steady-state target cleavage rate” value came to 0.00107 ± 0.015. Turning to CUUAAGGAGACCAUCUUCUGGCUUACCUAA, the “pre-steady-state target cleavage rate” value came out at 0.000768 ± 0.0066. For CUUAAGGUCUGCUACUACUGGGUUACCUAA, the “pre-steady-state target cleavage rate” value was found to be 0.00265 ± 0.01. Then CUUAAGGAGACCUACUACAGGGUUACCAAA, with 0.000344 ± 0.02; and CUUAAGGAGUCGAUCUACUGGGAUACCUAA, with 0.000289 ± 0.027; and CUUAAGGAGACGAUCUACUCGCUUACCUAA, with 0.00115 ± 0.0036. As for CUUAAGGAGACCAUCUACACGGUUACCUAA, the “pre-steady-state target cleavage rate” value was 0.000286 ± 0.022. Then CUUAAGGAGAGGUUGUACUGGGUUACCUAA, with 0.00025 ± 0.019; and CUUAAGGUCUGGAUCGUACUGGGUUACCUAA, with 0.00269 ± 0.006; and CUUAAGGAGACGAUCUACUGGGUUACCUCAA, with 0.00227 ± 0.0036. As to CUUAAGGAGACGAUCUACUGGGUACCUAA, the “pre-steady-state target cleavage rate” value was found to be 0.000115 ± 0.02.

As for CUUAAGCUCAGGAUCUACUGCGUUACCUAA, the “pre-steady-state target cleavage rate” value worked out at 0.0105 ± 0.0058. Take CUUAAGGAGUGGAACUACUGGGUUUCCUAA: the “pre-steady-state target cleavage rate” value is 0.000409 ± 0.019. Turning to CUUAAGGACUGGAUCUACUGCGUUACCUAA, the “pre-steady-state target cleavage rate” value stood at 0.00443 ± 0.012. As to CUUAAGGAGACCUACUACUGGGUAACCUUA, the “pre-steady-state target cleavage rate” value stood at 0.000153 ± 0.053.

In the case of CUUAAGGAGACCAUCAACUGGGUUACCUUA, the “pre-steady-state target cleavage rate” value amounted to 0.000432 ± 0.036. Regarding CUUAAGGAGACCUACUACUGGCAUACCUAA, the “pre-steady-state target cleavage rate” value turned out to be 0.000133 ± 0.032. For the sequence CUUAAGGAGACGAUCUACGGGUUACCUAA, the “pre-steady-state target cleavage rate” value stood at 0.000947 ± 0.0085. For the sequence CUUAAGGAGACCUUCUACUCGGUUACCAAA, the “pre-steady-state target cleavage rate” value is 0.000415 ± 0.022. Then CUUAAGGACUGCAUCUACUGGGAUACCUAA, with 0.00495 ± 0.011; and CUUAAGGUGUGGAUCAACUGGGUUACCUAA, with 0.014 ± 0.0076.

Turning to CUUAAGGAGACCUAGAUGAGCGUUACCAAA, the “pre-steady-state target cleavage rate” value is 0.000351 ± 0.025. As to CUUAAGGAGAGGAUCUUGUGGGUUACCUAA, the “pre-steady-state target cleavage rate” value turned out to be 0.000677 ± 0.014. CUUAAGGAGAGGAUCUACUGGGUUACUUAA: the “pre-steady-state target cleavage rate” value was 0.00398 ± 0.0049. For CUUAAGGAGACCUUCUACUGGGUUACCUGA, the “pre-steady-state target cleavage rate” value amounted to 0.000562 ± 0.017. For CUUAAGGUCUGGAUCUUCUCGGUUACCUAA, the “pre-steady-state target cleavage rate” value was determined as 0.00105 ± 0.011.

With CUUAAGGACUGGAUCUACUCGGUUACCUUA, the “pre-steady-state target cleavage rate” value came to 0.000647 ± 0.025. As for CUUAAGGAGUGGAUGUACUGGGUUACGUAA, the “pre-steady-state target cleavage rate” value worked out at 0.0019 ± 0.013.

Regarding CUUAAGGACUGGAUCUUCUCGGUUACCUAA, the “pre-steady-state target cleavage rate” value came to 0.000521 ± 0.028.

For CUUAAGGAGUGGAUCUAGUGGGUUACCUAA, the “pre-steady-state target cleavage rate” value came out at 0.0231 ± 0.0069.

As for CUUAAGGAGUGGAUCACUGGGUUACCUAA, the “pre-steady-state target cleavage rate” value is 0.000946 ± 0.0076. CUUAAGCUCUGGAUCUACUCGGUUAGCUAA: the “pre-steady-state target cleavage rate” value is 0.000639 ± 0.013. As to CUUAAGGAGACGAUCUACUGGCUUACCUAA, the “pre-steady-state target cleavage rate” value came out at 0.000515 ± 0.022. In the case of CUUAAGGAGACCAUCUACUGGGUAACCUAA, the “pre-steady-state target cleavage rate” value was determined as 0.00084 ± 0.0092. Turning to CUUAAGGAGUGGAUCUUCUCGGUUACCUAA, the “pre-steady-state target cleavage rate” value came out at 0.000565 ± 0.021. Then CUUAAGGAGAGGAUCUACUGGGGUACCUAA, with 0.00126 ± 0.007. Consider CUUAAGGACUGGAUCUACUGGGUAAGCUAA, for which the “pre-steady-state target cleavage rate” value amounted to 0.00155 ± 0.013. Consider CUUAAGGAGAGGAUCUACUGGGUCACCUAA, for which the “pre-steady-state target cleavage rate” value was 0.00234 ± 0.0035. CUUAUCCUCUGGAUCAACUGGGUUUCCUAA: the “pre-steady-state target cleavage rate” value was found to be 0.199 ± 0.072. With CUUAAGGAGACCUAGAUGUGGGUUACCUA, the “pre-steady-state target cleavage rate” value is 0.000167 ± 0.045. CUUAACACUCUGGAUCUACUGGGUUACCUAA: the “pre-steady-state target cleavage rate” value stood at 0.0824 ± 0.024. On to CUUAAGGAGUCGAUCUACUGCGUUACCUAA, for which the “pre-steady-state target cleavage rate” value was determined as 0.00114 ± 0.012. Then CUUAAGGAGAGGAUCUACUGCGUUACGUAA, with 0.000319 ± 0.028. Then CUUAAGGAGAGGAAGUACUGGGUUACCUAA, with 0.000369 ± 0.014. Turning to CUUAAGGAGAGGUUCUACUGGGUUACCAAA, the “pre-steady-state target cleavage rate” value came out at 0.00146 ± 0.0061.
